In publication PMC2561291:
These are yes or no findings as the source states them, for the method shown. Binding seen in cells or lysates may run through a third protein. Some binding calls cover weakened binding; strength is not graded here.

Amino acid sequences for entries named in this document (tags omitted). Residues count along the entry.
UniProt Q9QUK6, residues 661-835: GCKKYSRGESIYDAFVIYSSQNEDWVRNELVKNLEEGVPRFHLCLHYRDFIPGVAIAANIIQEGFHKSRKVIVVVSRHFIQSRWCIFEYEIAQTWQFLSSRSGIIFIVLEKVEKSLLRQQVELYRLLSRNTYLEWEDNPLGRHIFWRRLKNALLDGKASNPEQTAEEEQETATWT
UniProt Q8BJQ4: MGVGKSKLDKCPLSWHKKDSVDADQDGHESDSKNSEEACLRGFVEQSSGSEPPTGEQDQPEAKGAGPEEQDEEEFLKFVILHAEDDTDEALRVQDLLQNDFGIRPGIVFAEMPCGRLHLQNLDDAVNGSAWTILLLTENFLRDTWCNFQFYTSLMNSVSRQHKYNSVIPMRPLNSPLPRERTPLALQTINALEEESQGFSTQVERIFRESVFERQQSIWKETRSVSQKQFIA
UniProt P22366: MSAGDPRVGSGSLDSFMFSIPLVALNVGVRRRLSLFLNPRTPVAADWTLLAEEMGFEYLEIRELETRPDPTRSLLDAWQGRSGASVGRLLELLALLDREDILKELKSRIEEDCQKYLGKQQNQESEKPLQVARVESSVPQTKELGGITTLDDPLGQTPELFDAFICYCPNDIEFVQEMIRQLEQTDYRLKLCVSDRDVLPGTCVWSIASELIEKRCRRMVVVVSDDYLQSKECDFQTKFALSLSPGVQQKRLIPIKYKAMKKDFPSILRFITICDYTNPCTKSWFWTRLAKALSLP

Molecular target: GST fused to the TLR4 cytoplasmic tail (mouse TLR4 amino acids 661-835) (mouse) (UniProt Q9QUK6)
Experiment: pull-down; GST-TLR4 or GST co-expressed in HEK293T with Flag-TRAM and increasing amounts of Myc-MyD88; lysis in TNE buffer (10 mM Tris-HCl pH 7.5, 150 mM NaCl, 1 mM EDTA, 1% NP-40); Glutathione-Sepharose beads 30 min at 4°C; Western blot with anti-Flag, anti-Myc, anti-GST

Row | Substance | binding
1 | Flag-tagged TRAM (mouse) (from UniProt Q8BJQ4 1-232) | binds
2 | Myc-tagged MyD88 (mouse) (from UniProt P22366 1-296) | binds
